From paper PMC2669294, “The Spliceosomal Phosphopeptide P140 Controls the Lupus Disease by Interacting with the HSC70 Protein and via a Mechanism Mediated by γδ T Cells” (PLoS ONE, 2009)
No constants are given. Whether binding was seen depends on the method and setting. Binding seen in cells or lysates may run through a third protein. These calls come from enrichment with a bait or labelling near it, and not all partners need be listed.

Protein sequences, listed by entry. Tags and fused reporters are not part of them.
UniProt P63017: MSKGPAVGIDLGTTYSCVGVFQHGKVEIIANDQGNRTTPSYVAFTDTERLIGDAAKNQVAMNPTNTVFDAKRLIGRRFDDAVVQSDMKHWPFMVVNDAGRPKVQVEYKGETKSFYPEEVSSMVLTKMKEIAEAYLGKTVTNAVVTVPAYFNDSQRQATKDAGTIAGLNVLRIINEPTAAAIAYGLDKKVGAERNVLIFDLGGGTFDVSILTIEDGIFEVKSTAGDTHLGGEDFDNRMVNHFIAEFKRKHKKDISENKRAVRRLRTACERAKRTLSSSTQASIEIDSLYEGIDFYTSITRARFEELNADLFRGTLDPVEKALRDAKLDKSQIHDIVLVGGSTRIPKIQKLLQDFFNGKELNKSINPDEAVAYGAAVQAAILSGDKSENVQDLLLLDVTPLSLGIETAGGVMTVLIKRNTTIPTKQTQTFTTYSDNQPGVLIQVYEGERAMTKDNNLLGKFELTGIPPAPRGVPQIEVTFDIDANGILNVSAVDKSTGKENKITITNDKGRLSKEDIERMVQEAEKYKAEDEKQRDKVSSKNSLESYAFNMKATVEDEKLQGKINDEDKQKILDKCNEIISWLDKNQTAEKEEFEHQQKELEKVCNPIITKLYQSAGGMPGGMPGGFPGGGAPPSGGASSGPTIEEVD

Biological target: heat-shock cognate 71-kDa protein (HSC70) expressed on the surface of mouse splenocytes and lymph node cells (mouse (endogenous in MRL/lpr and CBA/J splenocytes and LNCs)) (UniProt P63017)
Assay: affinity purification with mass spectrometry; same procedure as a1 with unlabeled P140 peptide added as a competitor; band quantified by densitometry; only the binder purified

**Q.** For RIHMVYSKRSGKPRGYAFIEY (phosphoserine at Ser140 (position 10 of the peptide)) [P140 peptide (U1-70K snRNP protein residues 131-151, phosphorylated on Ser140)], which binding is on record?
**A.** binds
